No constants are given. Whether binding was seen depends on the method and setting. Some binding calls cover weakened binding; strength is not graded here. For some of these results: Where a sequence is shown, tags or fusion partners need not be part of it.
T1: IgB-4, recombinant soluble extracellular domain of ErbB-4 fused to the Fc portion of human immunoglobulin G (human) (UniProt Q15303)
T1 sequence (looked up): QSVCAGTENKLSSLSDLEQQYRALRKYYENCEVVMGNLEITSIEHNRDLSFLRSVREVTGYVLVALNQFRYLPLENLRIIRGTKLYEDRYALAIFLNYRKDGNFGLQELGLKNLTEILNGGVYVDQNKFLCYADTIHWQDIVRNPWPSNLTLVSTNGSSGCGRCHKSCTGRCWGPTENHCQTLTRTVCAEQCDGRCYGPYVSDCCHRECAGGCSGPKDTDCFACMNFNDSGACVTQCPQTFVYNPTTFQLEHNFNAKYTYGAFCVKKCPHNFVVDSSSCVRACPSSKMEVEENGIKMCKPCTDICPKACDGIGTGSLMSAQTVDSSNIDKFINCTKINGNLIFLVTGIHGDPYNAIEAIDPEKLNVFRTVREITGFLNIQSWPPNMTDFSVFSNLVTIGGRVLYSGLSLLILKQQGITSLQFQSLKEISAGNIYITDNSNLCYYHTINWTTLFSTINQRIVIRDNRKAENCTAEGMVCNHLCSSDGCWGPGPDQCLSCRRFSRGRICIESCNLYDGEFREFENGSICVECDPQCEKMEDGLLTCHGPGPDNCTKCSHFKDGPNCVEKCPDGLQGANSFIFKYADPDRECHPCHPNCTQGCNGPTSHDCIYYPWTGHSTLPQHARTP


What was measured:
[1] = target: T2, ErbB-1 expressed on transfected cells (32D derivative D1; CHO cells co-transfected with ErbB-4) (UniProt P00533 25-1210, limits assumed); assay: co-transfected CHO cells, 125I-NRG-4 crosslinking (BS3), precipitation of labeled monomeric and dimeric receptor species with an anti-ErbB-1 antibody
T2 construct: whole, on cells; also called Epidermal Growth Factor Receptor

[2] = target: T3, ErbB-4 expressed on transfected cells (CHO cells; 32D derivatives D4 and D24) (UniProt Q15303 26-1308, limits assumed); assay: 125I-ligand (100 ng/ml) on transfected CHO cells, BS3 crosslinking, immunoprecipitation of ErbB proteins, autoradiography; signal weaker than with NRG-1
T3 construct: whole, on cells; also called surface-expressed ErbB-4

[3] = target: T3, ErbB-4 expressed on transfected cells …; assay: in vitro studies with engineered cell lines expressing all four ErbB proteins (FIGS. 3 to 5)
[4] = target: T1, IgB-4, recombinant soluble extracellular domain of ErbB-4 fused to the Fc portion of human immunoglobulin G (human); assay: 125I-ligand incubated with soluble IgB, BS3 covalent crosslinking, protein-A precipitation, autoradiography
[5] = target: T3, ErbB-4 expressed on transfected cells …; assay: summary of the crosslinking and displacement assays
[6] = target: T1, IgB-4, recombinant soluble extracellular domain of ErbB-4 fused to the Fc portion of human immunoglobulin G (human); assay: covalent crosslinking of 125I-NRG-4 to IgB-4 with a 100-fold molar excess of unlabeled NRG-4
[7] = target: T3, ErbB-4 expressed on transfected cells …; assay: displacement of radiolabeled NRG-1β from CHO cells expressing ErbB-4

binding [1] | binding [2] | binding [3] | binding [4] | binding [5] | binding [6] | binding [7] | Molecule
binds |  |  |  |  |  |  | ErbB-4 expressed on transfected cells (CHO cells; 32D derivatives D4 and D24) (from UniProt Q15303 26-1308) (receptor)
 | binds | binds | binds | binds | binds | binds | DHEQPCGPRHRSFCLNGGICYVIPTIPSPFCRCIENYTGARCEEVFL (ligand) [synthetic refolded mouse EGF-like domain of NRG-4 (residues 4 to 50, SEQ ID NO:2)]

Reference: US20040121326A1 (YEDA RESEARCH AND DEVELOPMENT, published 2004)
